Assay: Palatability of 0.2 percent aqueous salt solutions touched to the tongue
Conditions: 0.2 percent (weight by volume) solutions in distilled water, d,l-glaucine salts; listed as d,l-Glaucine phosphate (2:3)

COc1cc2c(cc1OC)-c1c(OC)c(OC)cc3c1C(C2)N(C)CC3 (racemic) [d,l-glaucine phosphate, d,l-Glaucine Phosphate]
palatability: lack the sharp, metallic flavor and to be unobjectionable
